Results reported in PubChem BioAssay AID2685 (National Center for Advancing Translational Sciences (NCATS), 2010).
Out of some 320,000 compounds screened, about 2,100 (0.66%) were called active. Inconclusive means that the source gave no clear call. Such entries were picked first, then a sample of the others. The call rests on the fitted dose curve; in most records, active means well fitted inhibition curve with a large enough effect in the signal ratio, with a control signal flat (not every such curve was filed as active); inconclusive means small, poorly fitted or top-dose-only effect, or effect the other way, or a change in a side signal; inactive means flat fitted curve, though single readings scatter; the % refers to the signal ratio. Potencies beside an inconclusive call are fits to weak or partial responses and may not hold up.

experiment: qHTS Assay for Lipid Storage Modulators in Drosophila S3 Cells; settings: BODIPY lipid droplet fluorescence, 18-24 h, cells fed with added oleic acid; lipid storage change, negative = inhibition: at 46.1 µM (top of the series) unless noted
Method in brief: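 Laser-scanning cytometry quantifies lipid droplet accumulation (500–530 nm total intensity; droplet/cell object ratio) in oleic acid-fed (400 uM added) Drosophila S3 cells treated with a concentration series. 20 uM Triacsin C defined 100% inhibition.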
On the % scale 0 is the no-effect control and ±100 the full control effect; potency means the concentration at half of the fitted maximal effect.

Structure (SMILES)	lipid storage change, negative = inhibition	Potency	outcome
CCOc1ccc(C(=O)OC2CCCN(C)C2)cc1 (stereo not drawn)	inconclusive: 8.84%		
CC(=O)N(C)c1ccc(NC(=O)Cc2cccs2)cc1		inconclusive: 0.184 µM [activator, single point]	
CNS(=O)(=O)c1cccc(C(=O)OCc2cc(C(C)=O)ccc2OC)c1	inconclusive: -0.0229%		
CCOC(=O)N1CCN(Cc2cc(=O)oc3ccc4ccccc4c23)CC1	inconclusive: 107%		
CCn1c(=O)cc(OCC(=O)N(C)c2ccccc2F)c2ccccc21		inconclusive: 29.1 µM [falling, single point]	
COc1ccc(C2/C(=C(/O)c3ccccc3)C(=O)C(=O)N2CO)cc1 (stereo not drawn)	inconclusive: -35.2%		
CC(=O)Nc1ccc(S(=O)(=O)N2CCN(c3ccc([N+](=O)[O-])cc3)CC2)cc1	inconclusive: -26.1%		
Cc1ccc2c(COC(=O)c3ccccc3Cl)cc(=O)oc2c1		active: 1.64 µM	
COc1ccc(CNC(=O)CSc2nnc(C)n2-c2ccc(F)cc2)cc1	inconclusive: 3.21%		
CCOCCCNC(=O)c1cn(C)c2ccc(S(=O)(=O)N3CCCC3)cc2c1=O	inconclusive: 170%		
COc1ccc(C)cc1N(CC(=O)NC1CCCC1)C(=O)Cn1nnc(-c2ccc(C)o2)n1		inconclusive: 6.51 µM [falling, single point]	
CC(C)C(NC(=O)c1ccc([N+](=O)[O-])cc1Cl)C(=O)N1CCCC1 (stereo not drawn)	inconclusive: 16%		
CC(C)C[C@@H](C(=O)O)N(Cc1cccc(CN([C@@H](CC(C)C)C(=O)O)S(C)(=O)=O)c1)S(C)(=O)=O	inconclusive: 48.2%		
CC1C2CC(C(S(=O)(=O)N3CCOCC3)C2=O)C1(C)C (stereo not drawn)	inconclusive: 8.64%		
O=C(c1cc(-c2ccc(O)cc2)on1)N1CCOCC1		inconclusive: 6.51 µM [falling, single point]	
Cc1ccc(C(=O)Nc2cccc(C(=O)NCc3ccco3)c2)cc1	inconclusive: 24.1%		
COc1ccc(Cl)cc1NC(=O)c1[nH]nc(OC)c1[N+](=O)[O-]	inconclusive: -52.7%		
CCOc1ccc(S(=O)(=O)Nc2ccc(C(=O)NCc3ccncc3)cc2)cc1		inconclusive: 0.206 µM [falling, partial curve, poor fit]	
O=C1CCC(C(=O)O)N1 (stereo not drawn)	inconclusive: -0.163%		
COC(=O)CCCC(=O)N1CCC(n2nccc2NC(=O)CCOc2ccccc2)CC1		inconclusive: 0.82 µM [falling, full curve]	
C/C(=N/NC(=O)c1cc(O)c(O)c(O)c1)c1ccc([N+](=O)[O-])cc1	inconclusive: -6.35%		
Cc1ccccc1C(OCCN(C)C)c1ccccc1 (stereo not drawn)	inconclusive: -29.7%		
Nc1c(C(=O)Nc2ccc3c(c2)OCCO3)nnn1Cc1ccccc1	inconclusive: -44.5%		
CCOC(=O)Cn1c(=NC(=O)c2cc(-c3cccs3)nc3ccccc23)sc2cc(S(N)(=O)=O)ccc21		inconclusive: 0.146 µM [activator, full curve, poor fit]	

Structure (SMILES)	lipid storage change, negative = inhibition	Potency	outcome
CCOC(=O)c1cc(NC(=O)Nc2nccs2)c(C)nc1C	inconclusive: 10.1%		
COc1cccc(CNC(=O)[C@H](CCSC)NC(=O)N2CCn3c2nc2ccccc23)c1	inconclusive: -65.4%		
Cc1cc(Cl)c(S(=O)(=O)NC2CCCCC2)cc1OCC(=O)Nc1nncs1		inconclusive: 20.6 µM [cytotoxic, partial curve]	
Cc1cc(SCC(=O)OC/C(O)=C(\C#N)c2nc3ccccc3[nH]2)c(C)cc1Br		inconclusive: 20.6 µM [falling, single point]	
Cc1cccc(-n2cnc(C(=O)N3CCN(C)CC3)c2)n1	inconclusive: 1.18%		
O=C(CCN1C(=O)/C(=C/c2ccc(Cl)cc2)SC1=S)Nc1cccc(C(=O)O)c1		inconclusive: 0.0046 µM [falling, full curve, poor fit]	
COc1ccc(CCNC(=O)COc2ccc(N(C)S(=O)(=O)c3ccc(Cl)cc3)cc2)cc1	inconclusive: 91.4%		
O=C(Nc1nc2ccccc2s1)c1ccccc1[N+](=O)[O-]		inconclusive: 29.1 µM [activator, single point]	
CCC(=O)Nc1ccccc1-c1nc2ccccc2[nH]c1=O			inactive [at 46.1 µM]
COCc1cc(=O)[nH]c(-c2ccc(C(F)(F)F)cc2)n1	inconclusive: -14.8%		
COc1ccc(NC(=O)CN(C)C(=O)/C=C/c2ccc(OCc3ccccc3)cc2)cc1		active: 0.731 µM	
CCOc1ccc(C(C)=O)cc1CSc1nnc(-c2cccs2)n1CC1CCCO1 (stereo not drawn)	inconclusive: -1.1%		
O=c1c2ccccc2oc2cc(-c3ccc(CN4CCOCC4)cc3)ccc12		inconclusive: 10.3 µM [falling, single point]	
CCOC(=O)N1CCN(C(=O)Nc2ccc(Cl)cc2Cl)CC1	inconclusive: 51.8%		
COCCN(C(=O)CSc1ncn[nH]1)c1c(N)n(Cc2ccccc2)c(=O)[nH]c1=O	inconclusive: -9.58%		
CN(C)S(=O)(=O)c1ccc(Cl)c(C(=O)Nc2ccc(S(=O)(=O)N3CCOCC3)cc2)c1		inconclusive: 4.11 µM [falling, single point]	
CC(C)OC(=O)NCCOC(=O)Nc1ccc(Cl)cc1	inconclusive: 2.09%		
CCOC(=O)N1CCN(c2nc(=S)n(-c3ccccc3)c(C)c2C(C)=O)CC1	inconclusive: 15.4%		
Cc1cc(C)c(S(=O)(=O)N2CCCOC2CNC(=O)C(=O)NCc2ccncc2)c(C)c1 (stereo not drawn)	inconclusive: 14.1%		
Cc1cc(NC(=O)c2ccc(Br)o2)ccc1NC(=O)c1ccco1		inconclusive: 23.1 µM [activator, single point]	
COC(=O)CC1C(=O)NCCN1C(=O)Nc1cccc(Cl)c1 (stereo not drawn)	inconclusive: 127%		
O=C(COc1ccccc1Cl)Nc1ccc2c(c1)OCCO2	inconclusive: 23.8%		
CCOc1ccccc1/C=N/NC(=O)CNC(=O)COc1ccccc1	inconclusive: 19.9%		
Cc1ccc2c(c1)N(CC(=O)Nc1ncccc1C)C(=O)C(C(C)C)O2 (stereo not drawn)	inconclusive: -12.1%		

Quoted at random: 2 entries already listed, in no set order.
Structure (SMILES)	lipid storage change, negative = inhibition	Potency	outcome
CN(C)S(=O)(=O)c1ccc(Cl)c(C(=O)Nc2ccc(S(=O)(=O)N3CCOCC3)cc2)c1		inconclusive: 4.11 µM [falling, single point]	
COC(=O)CCCC(=O)N1CCC(n2nccc2NC(=O)CCOc2ccccc2)CC1		inconclusive: 0.82 µM [falling, full curve]	
